The list shows only some results of the screen, not a fair sample: it gathers tests that were run many times, whatever their T/C, doses with no T/C, and many T/C values between a quarter and a half above the control. Further doses and runs are listed elsewhere. T/C: endpoint of the treated group in % of that of the vehicle group. Schedules are NCI's codes, read here as Q, the interval in days (D) or hours (H), X, the number of doses. Some entries were tested several times; the values are given in rising order. Some T/C values are followed by the survivors on the day toxicity was checked, most often the fifth; without a count, all were alive then. Some doses have a count of surviving animals in place of a T/C: the source holds a T/C of zero for them, seemingly a mark for toxic or unscored doses. Counts of survivors are from the toxicity check (mostly the fifth day) where no day follows; animals may have died later.
Test system: MX-1 breast xenograft, nude mice, tumor weight change
Test: NCI In Vivo Anticancer Drug Screen. Data for tumor model Human Mammary Carcinoma MX-1 Xenograft (subcutaneous) in NU/NU Swiss (nude) mice
Conditions: T/C endpoint: optimum tumor weight change, higher T/C = larger tumour
Protocol: The antitumor activity of compounds was measured in mice bearing transplantable tumors. Survival or tumor size were measured and the results are expressed as the measurement made in the treated group (T) divided by the measurement made in the vehicle treated control group (C). The tumor model used in this assay is Human Mammary Carcinoma MX-1 Xenograft (subcutaneous) in NU/NU Swiss (nude) mice

[1] = dose: 100.0 mg/kg/injection, schedule: Q04DX003 (ip), vehicle: saline
[2] = dose: 200.0 mg/kg/injection, schedule: Q04DX003 (ip), vehicle: saline
[3] = dose: 400.0 mg/kg/injection, schedule: Q04DX003 (ip), vehicle: saline

Structure (SMILES): CN(C)c1nc(N(C)C)nc(N(C)C)n1
- survivor count (dose: 60.0 mg/kg/injection, schedule: Q04DX005 (ip), vehicle: saline): 2 of 5
- survivor count (dose: 240.0 mg/kg/injection, schedule: Q01DX005 (ip), vehicle: Klucel (hydroxypropylcellulose) (HPC)): 2 of 5
- survivor count (dose: 240.0 mg/kg/injection, schedule: Q04DX005 (ip), vehicle: Klucel (hydroxypropylcellulose) (HPC)): 3 of 5
- survivor count (dose: 240.0 mg/kg/injection, schedule: Q04DX005 (ip), vehicle: saline): 3 of 5
- survivor count (dose: 400.0 mg/kg/injection, schedule: Q04DX003 (ip), vehicle: Klucel (hydroxypropylcellulose) (HPC)): 3 of 5 on day 40
- survivor count (dose: 480.0 mg/kg/injection, schedule: Q01DX005 (ip), vehicle: Klucel (hydroxypropylcellulose) (HPC)): 1 of 5
- survivor count (dose: 480.0 mg/kg/injection, schedule: Q04DX005 (ip), vehicle: Klucel (hydroxypropylcellulose) (HPC)): 2 of 5
- survivor count (dose: 480.0 mg/kg/injection, schedule: Q07DX005 (ip), vehicle: Klucel (hydroxypropylcellulose) (HPC)): 2 of 5

Structure (SMILES): CC(C)CCCCCCCCCCCCC(=O)NCC(=O)NC1C(O)C(O)C(Nc2ncnc3nc[nH]c23)OC1C(O)CO (stereo not drawn)
- survivor count (dose: 24.0 mg/kg/injection, schedule: Q04DX003 (ip), vehicle: suspension in saline): 0 of 5 on day 36

Structure (SMILES): CN1CCN(CCCN2c3ccccc3Sc3ccc(C(F)(F)F)cc32)CC1
- survivor count [1]: 0 of 5 on day 36
- survivor count [2]: 0 of 5 on day 36
- survivor count [3]: 0 of 5 on day 36

Structure (SMILES): CC1OC(OC2CC(O)(C(=O)CO)Cc3c(O)c4c(c(O)c32)C(=O)c2ccccc2C4=O)CC(N)C1O (stereo not drawn)
- survivor count (dose: 1.0 mg/kg/injection, schedule: Q04DX003 (ip), vehicle: water): 0 of 5 on day 34

Structure (SMILES): COC1C(O)CC(OC2CC(OC3CC(O[C@@H]4C(=O)c5c(cc6cc(OC7CC(OC8CC(O)C(O)C(C)O8)C(O)C(C)O7)c(C)c(O)c6c5O)C[C@H]4[C@H](OC)C(=O)[C@@H](O)[C@@H](C)O)OC(C)C3O)OC(C)C2O)OC1C (stereo partly drawn)
- survivor count (dose: 1.5 mg/kg/injection, schedule: Q04DX003 (ip), vehicle: saline): 0 of 5 on day 40
- survivor count (dose: 3.0 mg/kg/injection, schedule: Q04DX003 (ip), vehicle: saline): 1 of 5 on day 40 and 2 of 5 on day 42
- survivor count (dose: 6.0 mg/kg/injection, schedule: Q04DX003 (ip), vehicle: saline): 0 of 5 on day 35 and 0 of 5 on day 40
- survivor count (dose: 12.0 mg/kg/injection, schedule: Q04DX003 (ip), vehicle: saline): 0 of 5 on day 35

Structure (SMILES): N=C(N)SCc1c2ccccc2c(CSC(=N)N)c2ccccc12
- survivor count (dose: 100.0 mg/kg/injection, schedule: Q04DX003 (ip), vehicle: suspension in saline): 3 of 5 on day 36
- survivor count (dose: 200.0 mg/kg/injection, schedule: Q04DX003 (ip), vehicle: suspension in saline): 0 of 5 on day 36

Structure (SMILES): COc1cccc2c1C(=O)c1c(O)c3c(c(O)c1C2=O)C[C@@](O)(C(C)=O)C[C@@H]3OC1CC(N)C(O)C(C)O1 (stereo partly drawn)
- survivor count (dose: 2.0 mg/kg/injection, schedule: Q04DX003 (ip), vehicle: saline): 3 of 5 on day 36
- survivor count (dose: 4.0 mg/kg/injection, schedule: Q04DX003 (ip), vehicle: saline): 0 of 5 on day 36
- survivor count (dose: 8.0 mg/kg/injection, schedule: Q04DX003 (ip), vehicle: saline): 0 of 5 on day 36

Structure (SMILES): O=NN(CCCl)C(=O)NC1CCCCC1
- survivor count (dose: 25.0 mg/kg/injection, schedule: Q04DX003 (ip), vehicle: Klucel (hydroxypropylcellulose) (HPC)): 3 of 5 on day 40
- survivor count (dose: 50.0 mg/kg/injection, schedule: Q04DX003 (ip), vehicle: Klucel (hydroxypropylcellulose) (HPC)): 3 of 5 on day 40

Structure (SMILES): O=c1[nH]cnc2n[nH]nc12
- survivor count (dose: 800.0 mg/kg/injection, schedule: Q04DX003 (ip), vehicle: Klucel (hydroxypropylcellulose) (HPC)): 2 of 5 on day 36
- survivor count (dose: 1600.0 mg/kg/injection, schedule: Q04DX003 (ip), vehicle: Klucel (hydroxypropylcellulose) (HPC)): 0 of 5 on day 36

Structure (SMILES): O=P1(NCCCl)OCCCN1CCCl (stereo not drawn)
- survivor count [1]: 1 of 5 on day 36
- survivor count [2]: 0 of 5 on day 34 and 0 of 5 on day 36
- survivor count [3]: 0 of 5 on day 34
- survivor count (dose: 800.0 mg/kg/injection, schedule: Q04DX003 (ip), vehicle: saline): 0 of 5 on day 34

Structure (SMILES): CN1N=C(N)c2cn(C3OC(COP(=O)(O)O)C(O)C3O)c3ncnc1c23 (stereo not drawn)
- T/C (dose: 50.0 mg/kg/injection, schedule: Q04DX003 (ip), vehicle: water, evaluated on day 32): 29 and 104 % of control
- T/C (dose: 50.0 mg/kg/injection, schedule: Q04DX003 (ip), vehicle: water, evaluated on day 35): 94 % of control
- survivor count (dose: 50.0 mg/kg/injection, schedule: Q04DX003 (ip), vehicle: water): 0 of 5 on day 40
- T/C (dose: 100.0 mg/kg/injection, schedule: Q04DX003 (ip), vehicle: water, evaluated on day 32): 30 % of control [4 of 5 alive on day 34]
- T/C (dose: 100.0 mg/kg/injection, schedule: Q04DX003 (ip), vehicle: water, evaluated on day 35): 12 % of control [4 of 5 alive on day 37]
- survivor count (dose: 100.0 mg/kg/injection, schedule: Q04DX003 (ip), vehicle: water): 0 of 5 on day 40 and 3 of 5 on day 34
- survivor count (dose: 200.0 mg/kg/injection, schedule: Q04DX003 (ip), vehicle: water): 0 of 5 on day 34, 2 of 5 on day 34, 2 of 5 on day 37, 2 of 5 on day 40

Structure (SMILES): COc1cc(NS(C)(=O)=O)ccc1Nc1c2ccccc2nc2ccccc12
- survivor count (dose: 16.0 mg/kg/injection, schedule: Q04DX003 (ip), vehicle: saline + alcohol): 3 of 5 on day 35
- survivor count (dose: 32.0 mg/kg/injection, schedule: Q04DX003 (ip), vehicle: saline + alcohol): 0 of 5 on day 35
- survivor count (dose: 64.0 mg/kg/injection, schedule: Q04DX003 (ip), vehicle: saline + alcohol): 0 of 5 on day 35

Structure (SMILES): CCCCNCCCNCCCNC(=O)c1csc(-c2csc(CCNC(=O)C(NC(=O)C(C)C(O)C(C)NC(=O)C(NC(=O)c3nc(C(CC(N)=O)NCC(N)C(N)=O)nc(N)c3C)C(OC3OC(CO)C(O)C(O)C3OC3OC(CO)C(O)C(OC(N)=O)C3O)c3cnc[nH]3)C(C)O)n2)n1 (stereo not drawn)
- survivor count (dose: 120.0 mg/kg/injection, schedule: Q04DX003 (ip), vehicle: saline): 1 of 5 on day 35

Structure (SMILES): NC(Cc1ccc(N(CCCl)CCCl)cc1)C(=O)O (stereo not drawn)
- survivor count (dose: 20.0 mg/kg/injection, schedule: Q04DX003 (ip), vehicle: Klucel (hydroxypropylcellulose) (HPC)): 0 of 5 on day 36 and 1 of 5 on day 36
- survivor count (dose: 40.0 mg/kg/injection, schedule: Q04DX003 (ip), vehicle: Klucel (hydroxypropylcellulose) (HPC)): 0 of 5 on day 36

Structure (SMILES): Cc1c(N)nc([C@H](CC(N)=O)NC[C@H](N)C(N)=O)nc1C(=O)N[C@H](C(=O)N[C@H](C)[C@@H](O)[C@H](C)C(=O)N[C@H](C(=O)NCCc1nc(-c2nc(C(=O)NCCC[S+](C)C)cs2)cs1)[C@@H](C)O)C(OC1OC(CO)C(O)C(O)C1OC1OC(CO)C(O)C(OC(N)=O)C1O)c1cnc[nH]1 (stereo partly drawn)
- survivor count (dose: 60.0 mg/kg/injection, schedule: Q04DX003 (ip), vehicle: saline): 3 of 5 on day 39
- survivor count (dose: 64.0 mg/kg/injection, schedule: Q04DX003 (ip), vehicle: saline): 0 of 5 on day 36

Structure (SMILES): N=c1ccn2c(n1)OC1C(O)C(CO)OC12 (stereo not drawn)
- survivor count (dose: 1600.0 mg/kg/injection, schedule: Q04DX003 (ip), vehicle: suspension in saline): 2 of 5 on day 36

Structure (SMILES): O=C/C(Cl)=C(/Cl)C(=O)O
- survivor count (dose: 25.0 mg/kg/injection, schedule: Q04DX003 (ip), vehicle: saline with Tween-80): 2 of 5 on day 35
- survivor count (dose: 50.0 mg/kg/injection, schedule: Q04DX003 (ip), vehicle: saline with Tween-80): 0 of 5 on day 35
- survivor count (dose: 100.0 mg/kg/injection, schedule: Q04DX003 (ip), vehicle: saline with Tween-80): 0 of 5 on day 35

Structure (SMILES): N=C(N)Sc1ccccn1
- survivor count [3]: 0 of 5 on day 36

Structure (SMILES): Cc1c(N)nc(C(CC(N)=O)NCC(N)C(N)=O)nc1C(=O)NC(C(=O)NC(C)C(O)CC(=O)NC(C(=O)NC(OC1OC(C)C(N)C(O)C1O)C(O)c1nc(-c2nc(C(=O)NCCCC(N)CC(=O)NCCCNCCCCN)cs2)cs1)C(C)O)C(OC1OC(CO)C(O)C(O)C1OC1OC(CO)C(O)C(OC(N)=O)C1O)c1cnc[nH]1 (stereo not drawn)
- survivor count (dose: 16.0 mg/kg/injection, schedule: Q04DX003 (ip), vehicle: saline): 2 of 5 on day 34
- survivor count (dose: 32.0 mg/kg/injection, schedule: Q04DX003 (ip), vehicle: saline): 0 of 5 on day 34

Structure (SMILES): CC(=O)OCC1OC(n2cc(CBr)nn2)C(OC(C)=O)C(OC(C)=O)C1OC(C)=O (stereo not drawn)
- survivor count (dose: 200.0 mg/kg/injection, schedule: Q04DX003 (ip), vehicle: saline with Tween-80): 3 of 5 on day 36
